Reference: the supplement of paper PMC4604168 (melanoma cell lines)
Some of the results follow. Single values are uncertain, as repeats are few or missing.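 The apoptosis fraction was the count of cleaved-PARP antibody-stained nuclei relative to all DNA-stained nuclei, imaged in 1,536-well plates. Screening doses were set so most cells survived, and baseline and induced cleaved-PARP levels vary greatly across cell lines.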

System: WM3526
Test: cleaved PARP positive nuclei fraction relative to DMSO control; melanoma cells; higher = more apoptosis
Conditions: library dose: low library concentration; 72 h

Compared with `C[C@]12O[C@H](C[C@]1(O)CO)n1c3ccccc3c3c4c(c5c6ccccc6n2c5c31)CNC4=O` [Lestaurtinib] + C[C@@H]1CCN(C(=O)CC#N)C[C@@H]1N(C)c1ncnc2[nH]ccc12 [CP690550] (first compound 0.004 µM, partner dose 1 µM), `COCC[n+]1c2c(n(Cc3cnccn3)c1C)C(=O)c1ccccc1C2=O` + C/C(O)=C(\C#N)C(=O)Nc1cc(Br)ccc1Br [LFM-A13] (first compound 0.0004 µM, partner dose 2 µM) is lower in “cleaved PARP positive nuclei fraction” value: 150% for the first, 62.7% for the second.

Compared with `C[C@]12O[C@H](C[C@]1(O)CO)n1c3ccccc3c3c4c(c5c6ccccc6n2c5c31)CNC4=O` [Lestaurtinib] + OCCn1cc(-c2cnc3nnn(Cc4ccc5ncccc5c4)c3n2)cn1 [PF04217903] (first compound 0.004 µM, partner dose 1 µM), `COc1cc([C@@H]2c3cc4c(cc3[C@@H](O[C@@H]3O[C@@H]5CO[C@@H](C)O[C@H]5[C@H](O)[C@H]3O)[C@H]3COC(=O)[C@H]23)OCO4)cc(OC)c1O` [etoposide] + Cn1cc(C2=C(c3cn(C4CCN(Cc5ccccn5)CC4)c4ccccc34)C(=O)NC2=O)c2ccccc21 [Enzastaurin] (first compound 0.02 µM, partner dose 0.8 µM) is lower in “cleaved PARP positive nuclei fraction” value: 180% for the first, 40% for the second.

For `C[As](C)SC[C@H](NC(=O)CC[C@H](N)C(=O)O)C(=O)NCC(=O)O` [Darinaparsin] + CN(NC(=O)CC(=O)NN(C)C(=S)c1ccccc1)C(=S)c1ccccc1 [STA4783] (first compound 0.4 µM, partner dose 0.006 µM), the “cleaved PARP positive nuclei fraction” value was 57.2%.

System: WM3619
Test: as above
Conditions: library dose: low library concentration; 72 h

Compared with `N.N.[Cl][Pt][Cl]` [cisplatin] + OCc1c[nH]c2ccccc12 [Indole-3-carbinol] (first compound 1.6 µM, partner dose 0.8 µM), `NC1(c2ccc(-c3nc4ccn5c(=O)[nH]nc5c4cc3-c3ccccc3)cc2)CCC1` + N.N.[Cl][Pt][Cl] [cisplatin] (first compound 0.4 µM, partner dose 1.6 µM) is lower in “cleaved PARP positive nuclei fraction” value: 96.5% for the first, 93% for the second.

Going from `Cc1cc(SCc2sc(-c3ccc(C(F)(F)F)c(F)c3)nc2C)ccc1OCC(=O)O` + C/C(O)=C(\C#N)C(=O)Nc1cc(Br)ccc1Br [LFM-A13] (first compound 2 µM, partner dose 2 µM) to `Cc1cc(Nc2cc(N3CCN(C)CC3)nc(Sc3ccc(NC(=O)C4CC4)cc3)n2)n[nH]1` [Tozasertib] + C[As](C)SC[C@H](NC(=O)CC[C@H](N)C(=O)O)C(=O)NCC(=O)O [Darinaparsin] (first compound 0.006 µM, partner dose 0.4 µM), the “cleaved PARP positive nuclei fraction” value rises from 90.4% to 102%.

Going from `N.N.[Cl][Pt][Cl]` [cisplatin] + CN1CCN(c2ccc3nc(-c4c(N)c5c(F)cccc5[nH]c4=O)[nH]c3c2)CC1 [Dovitinib] (first compound 1.6 µM, partner dose 0.1 µM) to `CC1(C)NC(=O)N(c2ccc([N+](=O)[O-])c(C(F)(F)F)c2)C1=O` [nilutamide] + O=C(Oc1ccc([N+](=O)[O-])cc1)N1CCC(C(O)(c2ccc3c(c2)OCO3)c2ccc3c(c2)OCO3)CC1 [JZL184] (first compound 1 µM, partner dose 1 µM), the “cleaved PARP positive nuclei fraction” value rises from 91.3% to 133%.

First: O=C(/C=C/c1cccnc1)NCCCCC1CCN(C(=O)c2ccccc2)CC1 + N.N.[Cl][Pt][Cl] [cisplatin] (first compound 0.01 µM, partner dose 1.6 µM)
Second: Cn1cc(C2=C(c3cn(C4CCN(Cc5ccccn5)CC4)c4ccccc34)C(=O)NC2=O)c2ccccc21 [Enzastaurin] + CC(C)CCN1c2nc(Nc3cc(F)c(O)c(F)c3)ncc2N(C)C(=O)C1C [BID1870] (first compound 0.8 µM, partner dose 0.2 µM)
The “cleaved PARP positive nuclei fraction” value of the first is higher: 136% for the first, 87.8% for the second.

First: Cn1cc(C2=C(c3cn(C4CCN(Cc5ccccn5)CC4)c4ccccc34)C(=O)NC2=O)c2ccccc21 [Enzastaurin] + O=C(Nc1cccc(Cl)c1)Nc1ncc(CCNc2ncnc3ccsc23)s1 [SNS314] (first compound 0.8 µM, partner dose 0.0008 µM)
Second: C[C@]1(O)C[C@@H](c2nc(-c3ccc4ccc(-c5ccccc5)nc4c3)c3c(N)nccn32)C1 + Cc1cc(SCc2sc(-c3ccc(C(F)(F)F)c(F)c3)nc2C)ccc1OCC(=O)O [GW0742] (first compound 0.4 µM, partner dose 2 µM)
The “cleaved PARP positive nuclei fraction” value of the first is lower: 87.1% for the first, 88.6% for the second.
